# Experimental data: PubChem BioAssay AID493014 (National Center for Advancing Translational Sciences (NCATS), 2011)
# Screen size: about 340,000 compounds; about 170 (0.05%) were called active. This list was built around the results that the source calls inconclusive (neither active nor inactive); the mix of calls is not that of the screen. Calls follow the shape of the dose curve; as a rule, active = well fitted inhibition curve with a large enough effect in the signal ratio, with a control signal flat (not every such curve was filed as active); inconclusive = small, poorly fitted or top-dose-only effect, or effect the other way, or a change in a side signal; inactive = flat fitted curve, though single readings scatter; the % refers to the signal ratio. A potency beside an inconclusive call is a rough fit, not a confirmed value.
# Test: qHTS Assay to Find Inhibitors of Chronic Active B-Cell Receptor Signaling;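 as to activity change, negative = inhibition: plate controls were basal doxycycline-induced cells for no effect and cells given 10 µM MG132 for full effect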
# Settings: ABC-DLBCL IkBa-CBG/CBR reporter, luminescence ratio (green luciferase fused to IkBa over red control in TMD8 lymphoma cells), 4 h; activity change, negative = inhibition: at 46.1 µM (top of the series) unless noted
# Procedure, shortened: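 Compounds up to 46 uM were incubated four hours with TMD8 cells whose green CBG68 luciferase is fused to IkappaBalpha; red CBR luminescence normalised the signal, and concentration-effect curves were fitted to fusion, red and ratio data.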
# Potency is read from the fitted curve at half-maximal effect.
Structure (SMILES),"activity change, negative = inhibition",Potency
C/C=C/c1ccc(OCc2cc(=O)n3cc(C)ccc3n2)c(OC)c1,inconclusive: -0.856%,
c1ccc(C(c2ccccc2)N2CCN(C(c3ccccn3)c3nnnn3C3CCCC3)CC2)cc1 (stereo not given),inactive,
CC(=O)Nc1ccc(S(=O)(=O)Nc2nc3ccccc3nc2Cl)cc1,inactive,
COc1ccccc1N1CCN(C(=O)Nc2ccc(F)c(Cl)c2)CC1,inactive,
O=C(Nc1cccnc1)c1ccc(Cl)c(Cl)c1,inconclusive: -10.5%,
COc1ccc(OCc2cc(C(=O)N3CCC(c4ccccc4)CC3)no2)c(Cl)c1,inconclusive: 5.91%,
CC(/C=C/c1ccco1)=N\NC(=O)c1cc(C)[nH]n1,inconclusive: -1.95%,
O=C(COc1ccc(Cl)cc1Cl)Nc1ccc(-c2ccc(N3CCOCC3)nn2)cc1,inactive,
CC(C)N(Cc1cc2ccccc2[nH]c1=O)C(=O)c1cccc([N+](=O)[O-])c1,inconclusive: 5.44%,
COc1ccc(NC(=O)/C(C#N)=C\c2ccc(N3CCOCC3)o2)cc1,,"inconclusive: 35.5 µM [falling, single point]"
O=C(NC(=S)Nc1ccc2c(c1)OCCO2)c1ccccc1,,"inconclusive: 5.62 µM [falling, partial curve]"
CCCCC[C@H](O)/C=C/[C@H]1CCC(=O)[C@@H]1CCCCCCC(=O)N1CCCCC1CO (stereo not given in full),,"inconclusive: 1 µM [falling, full curve, poor fit]"
CC(C)COc1ccc(C(=O)N2C(=O)c3ccc(N)cc3C2=O)cc1,inconclusive: -12.1%,
Cc1cc(C)n(-c2ccc(C(=O)Nc3ccc(C)c(S(=O)(=O)N4CCOCC4)c3)cc2)n1,inconclusive: -10.3%,
CCOC(=O)c1[nH]c(C)c(C(=O)OCC(=O)N(C)C2CCS(=O)(=O)C2)c1C (stereo not given),,"inconclusive: 35.5 µM [rising, single point]"
O=C(O)c1ccc(/C=C/c2nc3sc4c(c3c(=O)[nH]2)CCC4)cc1,inconclusive: 233%,
CC(C)c1ccc(CNc2ccc3c(c2)ncn3C)cc1,inconclusive: 1.76%,
Cc1ccc(-c2csc3nc[nH]c(=S)c23)cc1C,inactive,
S=C1N(c2ccccc2)CN(C2CCCCC2)CN1c1ccccc1,inactive,
Cc1ncsc1C(=O)Nc1nc2c(s1)CC(C)CC2 (stereo not given),,"inconclusive: 14.1 µM [falling, partial curve]"
CCC(C)c1ccccc1NC(=O)c1cc2cccc([N+](=O)[O-])c2[nH]1 (stereo not given),inconclusive: -3.1%,
O=C(c1cccnc1)N1CCN(c2ccccc2Cl)CC1,inconclusive: -4.89%,
Cn1c(=O)[nH]c(=O)c2c1nc(Br)n2C/C=N/NC(N)=S,inconclusive: 0.265%,
COc1ccc(-c2cc(C3CC3)nc(N)c2C#N)cc1,inconclusive: 3.05%,
COc1ccc(/C(=N\Nc2ccccc2C(=O)O)c2ccccc2)cc1,,"inconclusive: 14.1 µM [falling, partial curve]"
O=C(CCc1ccc(S(=O)(=O)NC2CCCCC2)cc1)N(Cc1ccccc1)Cc1ccccc1,inconclusive: 4.4%,
C=CCn1c(COc2ccccc2F)nnc1SCC(=O)c1c[nH]c2ccccc12,inconclusive: -13.2%,

Structure (SMILES),"activity change, negative = inhibition",Potency
COc1ccc(CCNC(=S)NC(=O)c2ccc(Br)cc2)cc1OC,inconclusive: -0.0214%,
O=C1C2C3C=CC(C4CC34)C2C(=O)N1/N=C/c1ccc(-c2ccc(F)cc2[N+](=O)[O-])o1 (stereo not given),inconclusive: 0.134%,
Cc1ccc(-c2nc(-c3ccccc3)no2)cc1,,"inconclusive: 29.1 µM [falling, single point]"
COc1cc(NC(=O)CN2C(=O)c3ccccc3Sc3ccc(C(=O)N4CCCC4)cc32)cc(OC)c1,inactive,
COc1ccccc1-n1c(SCC(=O)NC2CCCCC2)nc2c(c1=O)SCC2,,"inconclusive: 20.6 µM [falling, partial curve, poor fit]"
CN(CC(=O)Nc1ccc2c(c1)OCCO2)S(=O)(=O)c1cccc2cccnc12,,"inconclusive: 35.5 µM [falling, single point]"
Cc1ccnc(NC(=S)N2CCN(c3cccc(C(F)(F)F)c3)CC2)c1,inconclusive: 2.19%,
Cc1ccc(NC(=O)N2CCSc3ccccc32)cc1,inconclusive: 4.54%,
COc1ccccc1N1CCN(/N=C/c2ccc(O)c(O)c2)CC1,,"inconclusive: 15.8 µM [falling, single point]"
Clc1cccc(Cl)c1CO/N=C/c1c(-c2ccccc2)nc2n1CCS2,inactive,
c1csc(CNc2ncnc3nc[nH]c23)c1,,"inconclusive: 20.6 µM [falling, single point]"
COc1ccc2nc(NC(=O)c3ccc(NS(=O)(=O)c4cccs4)cc3)sc2c1,,"inconclusive: 20.6 µM [falling, single point]"
CC(=O)c1ccccc1Oc1cc(NN2CCCCC2)c([N+](=O)[O-])cc1[N+](=O)[O-],,"inconclusive: 8.91 µM [rising, partial curve, poor fit]"
CC[C@@]12C(=O)N(c3ccc(OC)cc3)C(=O)N1[C@H](c1cccc(C)c1)[C@@H]1C(=O)N(Cc3ccccc3)C(=O)[C@@H]12,inconclusive: 1.16%,
CC(O)CSc1nc2c(c(=O)[nH]c(=O)n2C)n1CC(O)COc1ccccc1 (stereo not given),inconclusive: -0.962%,
CN(C)CC#Cc1cncc(C(=O)NNC(=O)Nc2ccc(Cl)cc2)c1,,"inconclusive: 22.4 µM [falling, partial curve, poor fit]"
COc1ccc(CCNC(=O)C(=O)NCC2CCCN2S(=O)(=O)c2cccs2)cc1OC (stereo not given),inconclusive: -13.6%,
O=C(CCCN1C(=O)c2cccc3cccc(c23)C1=O)NC1CCS(=O)(=O)C1 (stereo not given),inconclusive: 12.5%,
Cc1ccc(Cl)cc1NC(=O)CCS(=O)(=O)c1cccc2nonc12,inactive,
CCOc1ccc(S(=O)(=O)N2CCN(c3ccccc3)CC2)c2cccnc12,inconclusive: -9.63%,
CC(C)(C)C(=O)O/N=C(\N)c1c(Cl)cccc1Cl,inconclusive: 14.6%,
O=C(CCC(=O)N1CCOCC1)NCCc1ccc(F)cc1,inconclusive: 0.398%,
CCOC(=O)C1=C(C)Nc2nc3ccccc3n2C1c1ccccc1 (stereo not given),inactive,
Cc1cccc(NC(=O)C2CCN(S(=O)(=O)c3cccc4nsnc34)CC2)n1,inconclusive: 8.96%,
Cn1c(Cn2nnc3ccccc32)nnc1SCC(=O)c1ccc(F)cc1,,"inconclusive: 35.5 µM [falling, single point]"
O=C(CSc1ncn[nH]1)Nc1ccccc1C(=O)O,,"inconclusive: 17.8 µM [falling, partial curve, poor fit]"
C=CCOc1c(Br)cc(/C=N/O)cc1OCC,inconclusive: -6.54%,

Structure (SMILES),"activity change, negative = inhibition",Potency
COc1ccccc1C(=O)NNC(=O)c1nn(Cc2ccccc2)c(=O)c2ccccc12,inconclusive: -22.2%,
CSc1nc2nc(C(F)(F)F)cc(-c3ccccc3)n2n1,inconclusive: 22.6%,
O=C1CN(C(=O)CSc2nnnn2-c2ccc(Cl)cc2)c2ccccc2N1,inconclusive: -0.128%,
O=C(Nc1ccc(F)cc1)c1cccc(N2C(=O)C3C4C=CC(C5CC45)C3C2=O)c1 (stereo not given),inconclusive: -7.96%,
CCN(CC)S(=O)(=O)c1ccc(C(=O)C(C#N)c2ccccn2)cc1 (stereo not given),inconclusive: 3.06%,
Cc1ccc(-n2ncc3c(NCCO)ncnc32)cc1Cl,inconclusive: -7.08%,
CCN(CC)S(=O)(=O)c1ccc2c3c(cccc13)C(=O)N2,inconclusive: -4.57%,
O=C(COC(=O)c1cc([N+](=O)[O-])ccc1N1CCOCC1)c1ccc(OC(F)F)cc1OC(F)F,inconclusive: -8.23%,
O=C(CCCN1C(=O)/C(=C/c2cccs2)SC1=S)NNC(=O)c1ccccc1O,inconclusive: -20.3%,
COc1ccc2c(Cl)c(C(=O)NCCCn3ccnc3)sc2c1Cl,inconclusive: 2.27%,
CCOC(=O)C1=C(COC(=O)c2c(OC)cccc2OC)NC(=O)NC1C (stereo not given),inconclusive: -23.2%,
CCCN1C(=O)c2ccccc2NC1c1ccc(OC)c(CSc2ccccn2)c1 (stereo not given),inconclusive: -10.4%,
COc1ccc(S(=O)(=O)NN=C2CCCCC2)cc1,inconclusive: 0.0476%,
COc1ccc(C)cc1Nc1n[n+](-c2ccccc2)c(-c2cc(OC)c(OC)cc2Br)s1,inactive,
NC(=O)Cn1nnc(-c2ccc(CN3CCCCC3)cc2)n1,inactive,
O=C1Nc2c(c(=O)[nH]c(=O)n2-c2ccccc2)C1(Nc1ncccn1)C(F)(F)F (stereo not given),inconclusive: 4.85%,
O=C(CCn1c(=O)[nH]c2ccsc2c1=O)NCCc1ccc(Cl)cc1,inconclusive: 16.7%,
COc1nnc(-c2ccccc2)s1,inconclusive: -0.563%,
C=CCn1c(=NC(=O)CC)n(C)c2ccccc21,inconclusive: 5.73%,
CCN1CCN(c2nc3ccccn3c(=O)c2C=O)CC1,inconclusive: -0.572%,
CCN(CC)S(=O)(=O)c1ccc2oc(Nc3ccc4c(c3)OCCO4)nc2c1,inactive,
Cc1cccc(NC(=O)C2CCCN(C(=O)Nc3ccc(F)cc3)C2)c1C (stereo not given),inconclusive: 6.14%,
Cc1ccccc1NC(=O)c1sc2nc3c(c(-c4ccco4)c2c1N)CCCC3,inactive,
Fc1ccc2c(c1)C1C=CCC1C(c1cc3c(cc1Br)OCO3)N2 (stereo not given),,"inconclusive: 12.6 µM [rising, partial curve, poor fit]"
CCCN(C(=O)CCOc1ccc(C(C)(C)C)cc1)c1c(N)n(Cc2ccccc2)c(=O)[nH]c1=O,inactive,
O=C(c1cc(-c2ccc(Cl)cc2)on1)N1CCOCC1,,"inconclusive: 5.8 µM [falling, full curve]"

# A few values from the list.
# For activity change, negative = inhibition, `C=CCn1c(=NC(=O)CC)n(C)c2ccccc21` shows inconclusive: 5.73%
# For activity change, negative = inhibition, `O=C1CN(C(=O)CSc2nnnn2-c2ccc(Cl)cc2)c2ccccc2N1` shows inconclusive: -0.128%
# For activity change, negative = inhibition, `CCN1CCN(c2nc3ccccn3c(=O)c2C=O)CC1` shows inconclusive: -0.572%
